Reference: publication PMC6925144, “A prospective compound screening contest identified broader inhibitors for Sirtuin 1” (Scientific Reports, 2019)
The full ranking holds about 3,200 compounds; the median of “TSA(with NAD+) / Primary screening (TSA) / delta Tm (K)” is about -0.04, and the highest 2% start at about 0.37. Some of the results follow.

Sequences of proteins named here, by UniProt entry; tags and fusion partners are left off. Residues count along the entry.
UniProt Q96EB6, 2-747 limits assumed: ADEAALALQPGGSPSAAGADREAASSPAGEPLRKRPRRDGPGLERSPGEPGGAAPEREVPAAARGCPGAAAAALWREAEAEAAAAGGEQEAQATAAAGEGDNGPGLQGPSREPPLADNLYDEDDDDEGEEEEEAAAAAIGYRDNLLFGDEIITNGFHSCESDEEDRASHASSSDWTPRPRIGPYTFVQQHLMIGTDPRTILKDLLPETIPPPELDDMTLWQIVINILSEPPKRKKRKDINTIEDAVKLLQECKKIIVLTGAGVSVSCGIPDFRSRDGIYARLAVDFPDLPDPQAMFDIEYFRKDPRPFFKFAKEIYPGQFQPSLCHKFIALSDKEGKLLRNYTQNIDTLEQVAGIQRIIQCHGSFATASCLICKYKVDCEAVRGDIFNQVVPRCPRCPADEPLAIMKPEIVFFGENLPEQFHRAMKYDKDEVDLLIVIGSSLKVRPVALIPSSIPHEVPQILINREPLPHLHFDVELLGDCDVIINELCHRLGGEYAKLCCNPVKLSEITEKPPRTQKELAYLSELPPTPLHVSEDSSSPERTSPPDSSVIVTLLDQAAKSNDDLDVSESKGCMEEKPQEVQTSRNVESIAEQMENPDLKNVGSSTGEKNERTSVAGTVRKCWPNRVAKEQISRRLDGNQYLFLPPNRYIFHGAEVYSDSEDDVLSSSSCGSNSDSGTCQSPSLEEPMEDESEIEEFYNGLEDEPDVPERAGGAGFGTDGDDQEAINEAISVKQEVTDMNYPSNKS

What follows are molecules tested against NAD-dependent deacetylase Sirtuin 1 (human, UniProt Q96EB6) (assay: primary screen, delta tm). Details: 10 µM.
Set-up: single well (n = 1, as 'the same TSA')

Row | SMILES | TSA(with NAD+) / Primary screening (TSA) / delta Tm (K)
1 | COC(=O)c1ncccc1N1CCC(C(O)c2ccccc2)CC1 (stereo not shown) | -0.21 K
2 | O=C(O)Cc1cc(F)cc2c1OCOC2 | -0.23 K
3 | O=C1NC(=S)N/C1=C\c1cc(Br)ccc1O | -0.03 K
4 | NC(=O)c1cc2sc3ccccc3c2s1 | 0.01 K
5 | Cn1c(SCc2cccc(C#N)c2)nc2ccsc2c1=O | -0.23 K
6 | Nc1cccc(N2C(=O)c3ccccc3C2=O)c1 | -0.09 K
7 | COC(=O)NCC(=O)NCc1ccc(Cn2cnc3ccccc32)cc1 | 0.07 K
8 | O=C(NC12CC3CC(CC(C3)C1)C2)c1ccccc1C(=O)OCC(=O)N1CCc2ccccc21 | -0.13 K
9 | O=C(O)CSCC(=O)O | -0.16 K
10 | NC(=O)C1CCN(Cc2nc3c(Br)cc(Br)cc3c(=O)[nH]2)CC1 | 0.08 K
11 | O=C(CNCc1ccco1)Nc1ccccc1C(F)(F)F | -0.16 K
12 | O=C1NC(=S)NC(=O)C1=Cc1cccnc1 | -0.14 K
13 | Cc1ccc(N(C)S(=O)(=O)c2cccc(C(=O)Nc3cc(F)ccc3C)c2)cc1 | -0.01 K
14 | O=C(O)CCc1c(-c2ccc(F)cc2)[nH]c2ccccc12 | -0.08 K
15 | COc1ccc2c(c1)CCCC2CNC(=O)c1cc(C(N)=O)cs1 (stereo not shown) | -0.12 K
16 | O=C(CN1CCN(Cc2ccc(Br)s2)CC1)Nc1cc(Cl)ccc1-n1cncn1 | -0.05 K
17 | COCCOCCN | 0.01 K
18 | CN(Cc1ccc(C(=O)NCC(F)(F)F)cc1)Cc1nc2c(cnn2-c2ccccc2)c(=O)[nH]1 | -0.08 K
19 | CC1CCc2c(sc3ncnc(N4CCN(S(=O)(=O)c5ccc6c(c5)OCCO6)CC4)c23)C1 (stereo not shown) | 0.18 K
20 | N#CCNC(=O)c1ccc2[nH]c3c(c2c1)CCCC3 | 0.06 K
21 | CCc1nn2c(=O)cc(COC(=O)C(O)(c3ccccc3)c3ccccc3)nc2s1 | -0.05 K
22 | COc1cccc(C(=O)OC(C)C(=O)Nc2ccc(C(N)=O)cc2)c1OC (stereo not shown) | 0.15 K
23 | CCCOc1ccc2cc(C(=O)c3ccc(N(C)S(C)(=O)=O)cc3)oc2c1 | -0.11 K
24 | COc1ccc(N)c(OC)c1 | -0.18 K
25 | Cc1ccc(-n2nnnc2SCc2nc3c(cnn3-c3ccccc3)c(=O)[nH]2)cc1 | -0.11 K

Row | SMILES | TSA(with NAD+) / Primary screening (TSA) / delta Tm (K)
26 | Cc1ccc(OCCNC(=O)Cc2coc3cc4c(cc23)CCC4)cc1 | -0.12 K
27 | Cc1ccc(OCC(O)Cn2c(C(F)(F)F)ccc(C(N)=O)c2=O)cc1 (stereo not shown) | 0.01 K
28 | OCn1cnc2ccccc21 | -0.24 K
29 | C#CCCN1CCN(C(C)C(=O)N(C)C(C)C)CC1 (stereo not shown) | -0.13 K
30 | Cc1ccc(N(C)S(=O)(=O)c2cccc(C(=O)Nc3ccc(Br)c(C)c3)c2)cc1 | 0.73 K
31 | Cc1[nH]c2ccc(C(=O)O)cc2c1C | -0.09 K
32 | CN(C(=O)CSc1nnc(NCc2ccco2)s1)C1CCCc2ccccc21 (stereo not shown) | -0.03 K
33 | O=C(NC1(C(=O)N2CCN(C(=O)c3cnccn3)CC2)CCOC1)OCc1ccccc1 (stereo not shown) | -0.18 K
34 | N#Cc1ccc(CN2CCC(CCc3ccc(O)cc3)CC2)cc1 | -0.06 K
35 | CCC(C)NC (stereo not shown) | 0.35 K
36 | O=C(c1cnc2c3ccccc3nn2c1)c1ccccc1O | 0.07 K
37 | CCOc1ccc(C2C(C(=O)c3ccco3)=C(O)C(=O)N2CCCN2CCOCC2)cc1 (stereo not shown) | 0.01 K
38 | CC1CN(Cc2ccc(F)cc2)CCN1C(C)c1nc(C2CC2)no1 (stereo not shown) | -0.08 K
39 | O=C(Nc1cc(S(=O)(=O)N2CCOCC2)ccc1OCC(F)(F)F)C1=COCCO1 | 0.01 K
40 | O=C(O)CCSc1ccc(F)cc1 | 0.06 K
41 | O=C(O)CCn1cnc2sccc2c1=O | -0.14 K
42 | CC(Oc1ccc(F)c(Cl)c1)C(N)=O (stereo not shown) | -0.22 K
43 | Cc1nsc(NCc2cccnc2N2CCC(C(N)=O)CC2)n1 | 0.09 K
44 | O=C1CCC(C(=O)N(C2CCCC2)C2CC2)N1 (stereo not shown) | -0.01 K
45 | N#Cc1c(Cn2nnc3ccccc3c2=O)cn2ccccc12 | -0.09 K
46 | CC(=O)NCCC(=O)C(C#N)C(=O)c1c[nH]c2cc(Cl)ccc12 (stereo not shown) | -0.18 K
47 | COc1cccc(C(=O)C2=C(O)C(=O)N(CCCN3CCOCC3)C2c2ccncc2)c1 (stereo not shown) | -0.21 K
48 | CCOC(=O)c1oc2ccccc2c1COC(=O)Cn1cnnn1 | -0.09 K
49 | Cc1nnnn1Cc1cn2c(C)cccc2n1 | 0.01 K
50 | O=C(NCC1CC1)c1ccc2[nH]c3c(c2c1)CCCCC3 | -0.06 K

Row | SMILES | TSA(with NAD+) / Primary screening (TSA) / delta Tm (K)
51 | CC(NC(=O)Cc1cc2ccccc2[nH]c1=O)c1ccc2ccccc2c1 (stereo not shown) | -0.03 K
52 | CCCOc1ccc(C2C(C(=O)c3ccccc3)=C(O)C(=O)N2CCCN2CCOCC2)cc1 (stereo not shown) | -0.03 K
53 | Cc1ccc2[nH]c3c(c2c1)CC(N)CC3 (stereo not shown) | 0.25 K
54 | O=C(CSc1nnc(-c2ccccc2)o1)NCCCc1ccccc1 | 0.15 K
55 | COc1ccc(C(=O)C2=C(O)C(=O)N(CCCN3CCOCC3)C2c2ccccc2)cc1C (stereo not shown) | -0.13 K
56 | O=C(C1CCN(c2cc(=O)n3ccccc3n2)CC1)N1CCCC1 | -0.01 K
57 | O=C(Nc1ccc(N2CCN(Cc3ccccc3)CC2)cc1)c1cccc(-n2cnnn2)c1 | -0.01 K
58 | NCCC[C@@H](N)C(=O)O | -0.08 K
59 | Cc1nnc(N2CCN(c3ncc(Br)cn3)CC2)c(C(N)=O)c1C | -0.14 K
60 | NCC1(CN)CCCCC1 | -0.03 K
61 | O=C(Nc1cccc(S(=O)(=O)N2CCOCC2)c1)C1=COCCO1 | -0.12 K
62 | C[C@@H](N)CCO | -0.05 K
63 | N#Cc1ccc(C(=O)Nc2c(Cl)cccc2Cl)cc1 | 0.01 K
64 | Cc1ccc(CCC2CCNCC2)cc1 | -0.19 K
65 | COc1cccc2cc(C(=O)C3=C(O)C(=O)N(CCCN4CCOCC4)C3c3ccncc3)oc12 (stereo not shown) | -0.05 K
66 | Cc1noc(C)c1CC(=O)OCc1cn(-c2ccccc2)nc1-c1ccc(Cl)cc1 | 0.09 K
67 | Cc1[nH]c2ccccc2c1C(=O)CN1CCCC(C(N)=O)C1 (stereo not shown) | 0.09 K
68 | O=C(Nc1cccnc1)c1ccc(F)cc1Br | -0.05 K
69 | COc1ccc(OC)c(C=C2C(=O)NC(=S)NC2=O)c1 | -0.11 K
70 | Cc1ccc(C)c(NC(=O)CN(C)C(=O)Cn2cnc3scc(-c4ccc(C)s4)c3c2=O)c1 | 0.03 K
71 | CC1(CN)CC1 | -0.05 K
72 | COc1ccc(C2C(C(=O)/C=C/c3ccco3)=C(O)C(=O)N2CCN2CCOCC2)cc1OC (stereo not shown) | -0.12 K
73 | COc1cccc(C2C(C(=O)/C=C/c3ccco3)=C(O)C(=O)N2CCN2CCOCC2)c1OC (stereo not shown) | -0.12 K
74 | Cc1c(Cl)cccc1NC(=O)CNc1cc(C(N)=O)c(Cl)cc1Cl | -0.03 K
75 | N#CCOc1ccccc1/C=C1\Oc2cc(O)ccc2C1=O | -0.14 K

Looked up above.
For TSA(with NAD+) / Primary screening (TSA) / delta Tm (K), C[C@@H](N)CCO has the entry -0.05 K
For TSA(with NAD+) / Primary screening (TSA) / delta Tm (K), Cc1c(Cl)cccc1NC(=O)CNc1cc(C(N)=O)c(Cl)cc1Cl has the entry -0.03 K
For TSA(with NAD+) / Primary screening (TSA) / delta Tm (K), COc1ccc(C(=O)C2=C(O)C(=O)N(CCCN3CCOCC3)C2c2ccccc2)cc1C (stereo not shown) has the entry -0.13 K
For TSA(with NAD+) / Primary screening (TSA) / delta Tm (K), Cc1ccc(CCC2CCNCC2)cc1 has the entry -0.19 K

(continued)

Row | SMILES | TSA(with NAD+) / Primary screening (TSA) / delta Tm (K)
76 | CCc1cccc(CC)c1NC(=O)C(c1ccccc1)c1ccccc1 | 0.18 K
77 | Cc1c2c(c(C#N)c3nc4ccccc4n13)CCCC2 | -0.09 K
78 | Cc1nc(S)sc1CC(=O)N1CCCC(C)(O)C1 (stereo not shown) | -0.24 K
79 | O=C(CSc1nc2ccccc2c(=O)n1CCCO)c1cc(F)ccc1F | -0.01 K
80 | O=C(Nc1cccc(S(=O)(=O)N2CCOCC2)c1)C(c1ccccc1)c1ccccc1 | 0.16 K
81 | NC(=O)C1CCN(c2ncnc3c2oc2ccccc23)CC1 | -0.09 K
82 | COc1cc(NC(=O)c2ccco2)c(C(=O)OCC(=O)NC(C)C23CC4CC(CC(C4)C2)C3)cc1OC (stereo not shown) | 0.08 K
83 | Cc1sc2ncnc(N3CCC(C(=O)N(C)CC(=O)Nc4ccccc4Cl)CC3)c2c1C | -0.09 K
84 | CC1(CN)CCNC1 (stereo not shown) | -0.13 K
85 | O=C1CCCN1Cc1ccc(-c2ccccc2CNC(=O)C23CC4CC(CC(C4)C2)C3)cc1 | -0.05 K
86 | Cc1c(C(=O)NCC2CCCc3ccccc32)[nH]c2c1C(=O)CC(C)(C)C2 (stereo not shown) | -0.11 K
87 | O=C(COC(=O)C1=COCCO1)NC(c1ccccc1)c1ccccc1 | -0.23 K
88 | CC(C)c1ccccc1-n1c(SCC(=O)Nc2sccc2C(N)=O)nc2ccccc2c1=O | 0.15 K
89 | CCCC(C(=O)Nc1cc(C)on1)N1CCCC(c2nc(C)no2)C1 (stereo not shown) | 0.08 K
90 | COC(=O)c1ccccc1Nc1ccnc(Cl)n1 | -0.11 K
91 | CCOCCNc1ncnc2ccsc12 | -0.03 K
92 | Cc1nc(C(C)NC(=O)c2ccc(Cl)s2)sc1C(=O)O (stereo not shown) | -0.05 K
93 | Cc1ccc2oc(C3(C)Cc4ccccc4C(=O)O3)cc(=O)c2c1 (stereo not shown) | -0.11 K
94 | Cc1cccc(Cc2cnc(NC(=O)CCNC(=O)c3ccccc3Cl)s2)c1 | 0.03 K
95 | N#CCn1cc(C(F)(F)F)cc(Cl)c1=O | -0.01 K
96 | CCCC(N)CC (stereo not shown) | -0.14 K
97 | COc1cc(C(C)=O)ccc1OCc1noc(C)n1 | -0.23 K
98 | O=C(COC(=O)c1ccc(S(=O)(=O)N2CCCc3ccccc32)cc1)NC12CC3CC(CC(C3)C1)C2 | -0.11 K
99 | COC(=O)CNC(=O)c1cccc(NC(=O)CCc2nnc(-c3ccc(Cl)cc3)o2)c1 | -0.01 K
100 | O=C1/C(=C/c2cccc(Br)c2)Oc2cc(O)ccc21 | 0.36 K
